{
  "source": "patent US8524481B2",
  "about": "“Hide processing methods and compositions” (priority 2010, dated 2013)",
  "key": {"[1]": {"test_system": "Strain A/SRC002 (MTCC 5564)", "test": "Antibiotic sensitivity by disk diffusion method, Strain A", "type": "cell-based, Pseudomonas aeruginosa", "settings": "Himedia antibiotic discs, Mueller Hinton Agar, 37° C. overnight", "procedure": "(§1) The sensitivity of the strains against different antibiotics was determined by disk diffusion method using commercially available (Himedia) antibiotic discs. The representative of each group of antibiotic had been tested. The antibiotics used were Ampicillin (A10), Cephadroxil (Cq30), Chloramphenicol (C30), Cloxacillin (Cx30), Cephotaxime (Ce30), Ceftazidime (Ca30), Ciprofloxacin (Cf5), Doxycycline Hydrochloride (Do30), Gentamicin (G10), Metronidazole (Mt4), Neomycin (N30), Norfloxacin (Nx10), Polymyxin B (Pb100), Rifampicin (R15), Roxithromycin (Ro30), Tetracycline (T30), Trimethoprin (Tr30), Vancomycin (Va30). The concentrations of the antibiotics in microgram per disc were mentioned in parenthesis indicated above except for Polymyxin B where it is 100 units. Mueller Hinton Agar medium (Himedia-M173) was used to grow each of the microorganisms for antibiotic sensitivity test. The log phase culture of each isolate was diluted 100 times and poured on Mueller Hinton Agar (MHA) plates. It was swirled uniformly to distribute the culture throughout the plate. After waiting for 30 mins, the cultures were carefully pipetted out from the plates and the plates were allowed to dry. […] The zones of inhibition were measured. The results were evaluated using National Committee for Clinical Laboratory Standard's (NCCLS) chart provided with the antibiotic discs by Himedia. […]"}, "Strain B/GZN (MTCC 5566)": {"test_system": "Strain B/GZN (MTCC 5566)", "test": "Antibiotic sensitivity by disk diffusion method, Strain B", "type": "cell-based, Pseudomonas aeruginosa", "settings": "Himedia antibiotic discs, Mueller Hinton Agar, 37° C. overnight", "procedure": "as §1"}},
  "note": "At least one compound was matched to its structure with a doubt left.",
  "data": [
    {"smiles": "CO[C@H]1/C=C/O[C@@]2(C)Oc3c(C)c(O)c4c(O)c(c(/C=N/N5CCN(C)CC5)c(O)c4c3C2=O)NC(=O)/C(C)=C\\C=C\\[C@H](C)[C@H](O)[C@@H](C)[C@@H](O)[C@@H](C)[C@H](OC(C)=O)[C@@H]1C", "note": "[Rifampicin]", "values": [
      {"measurement": "antibiotic sensitivity (zones of inhibition evaluated by NCCLS chart)", "setting": "[1]", "result": "resistant"},
      {"measurement": "antibiotic sensitivity (zones of inhibition evaluated by NCCLS chart)", "setting": "Strain B/GZN (MTCC 5566)", "result": "resistant"}
    ]}
  ]
}
